Assay results published in US12721820B2, “Method of manufacturing peptide nanoparticles” (DuPage Medical Technology, Inc., priority 2020, dated 2026).
Part of at least one peptide drawing is inferred or uncertain, most often the ends. Residues, ends and D or L forms follow the SMILES beside them. *: point of attachment. Myristoyl = CCCCCCCCCCCCCC(=O)*

Assays:
[1] = Dissolution and storage stability of lyophilized powder; format: physicochemical; conditions: physiological saline for I.V. injection
Procedure: The M3mP6 HLPN thus generated achieves a high M3mP6 peptide loading reaching >80% of total nanoparticle (mol/mol) (when such percentage of peptide was incorporated into during the process) and a high peptide concentration of >10 mM in injectable suspension. As analyzed by dynamic light scattering (DLS), the vast majority (99.8-100%) of these lipid-stabilized, PEG-coated M3mP6 HLPN have a particle size ranging between 6 nm to 25 nm (in different preparations) with occasional appearance of very small populations (0-0.2%) with larger diameters (~50-500 nm) (FIGS. 5A-5F).

[2] = system: FeCl3-induced carotid artery thrombosis; assay: FeCl3-induced carotid artery thrombosis model; format: in vivo, mice; conditions: 7.5% FeCl3-induced carotid artery thrombosis

With `CCCCCCCCCCCCCC(=O)N[C@@H](Cc1ccccc1)C(=O)N[C@@H](CCC(=O)O)C(=O)N[C@@H](CCC(=O)O)C(=O)N[C@@H](CCC(=O)O)C(=O)N[C@@H](CCCNC(=N)N)C(=O)N[C@@H](CC(C)C)C(=O)O` [M3mP6, Myr-FEEERL (SEQ ID NO: 8)] (Myristoyl-FEEERL-OH; C-terminus assumed) the “dissolution of lyophilized powder” value [1] was “readily dissolvable” and the “inhibition of occlusive thrombosis” value [2] was “potently inhibited”.
